Data reported in PubChem BioAssay AID651768 (National Center for Advancing Translational Sciences (NCATS), 2012).
The whole screen tested about 360,000 compounds, of which about 1,700 (0.47%) were called active. The shares of active, inactive and inconclusive entries below differ from those in the screen. The call rests on the fitted dose curve; in most records, active means well fitted inhibition curve with a large enough effect; inconclusive means small, poorly fitted or top-dose-only effect; inactive means no such curve, though single readings can be large or run the other way. Potencies beside an inconclusive call are fits to weak or partial responses and may not hold up.

By UniProt entry, the sequences of proteins in these tests, tags left out.
UniProt Q14191, whole entry, looked up: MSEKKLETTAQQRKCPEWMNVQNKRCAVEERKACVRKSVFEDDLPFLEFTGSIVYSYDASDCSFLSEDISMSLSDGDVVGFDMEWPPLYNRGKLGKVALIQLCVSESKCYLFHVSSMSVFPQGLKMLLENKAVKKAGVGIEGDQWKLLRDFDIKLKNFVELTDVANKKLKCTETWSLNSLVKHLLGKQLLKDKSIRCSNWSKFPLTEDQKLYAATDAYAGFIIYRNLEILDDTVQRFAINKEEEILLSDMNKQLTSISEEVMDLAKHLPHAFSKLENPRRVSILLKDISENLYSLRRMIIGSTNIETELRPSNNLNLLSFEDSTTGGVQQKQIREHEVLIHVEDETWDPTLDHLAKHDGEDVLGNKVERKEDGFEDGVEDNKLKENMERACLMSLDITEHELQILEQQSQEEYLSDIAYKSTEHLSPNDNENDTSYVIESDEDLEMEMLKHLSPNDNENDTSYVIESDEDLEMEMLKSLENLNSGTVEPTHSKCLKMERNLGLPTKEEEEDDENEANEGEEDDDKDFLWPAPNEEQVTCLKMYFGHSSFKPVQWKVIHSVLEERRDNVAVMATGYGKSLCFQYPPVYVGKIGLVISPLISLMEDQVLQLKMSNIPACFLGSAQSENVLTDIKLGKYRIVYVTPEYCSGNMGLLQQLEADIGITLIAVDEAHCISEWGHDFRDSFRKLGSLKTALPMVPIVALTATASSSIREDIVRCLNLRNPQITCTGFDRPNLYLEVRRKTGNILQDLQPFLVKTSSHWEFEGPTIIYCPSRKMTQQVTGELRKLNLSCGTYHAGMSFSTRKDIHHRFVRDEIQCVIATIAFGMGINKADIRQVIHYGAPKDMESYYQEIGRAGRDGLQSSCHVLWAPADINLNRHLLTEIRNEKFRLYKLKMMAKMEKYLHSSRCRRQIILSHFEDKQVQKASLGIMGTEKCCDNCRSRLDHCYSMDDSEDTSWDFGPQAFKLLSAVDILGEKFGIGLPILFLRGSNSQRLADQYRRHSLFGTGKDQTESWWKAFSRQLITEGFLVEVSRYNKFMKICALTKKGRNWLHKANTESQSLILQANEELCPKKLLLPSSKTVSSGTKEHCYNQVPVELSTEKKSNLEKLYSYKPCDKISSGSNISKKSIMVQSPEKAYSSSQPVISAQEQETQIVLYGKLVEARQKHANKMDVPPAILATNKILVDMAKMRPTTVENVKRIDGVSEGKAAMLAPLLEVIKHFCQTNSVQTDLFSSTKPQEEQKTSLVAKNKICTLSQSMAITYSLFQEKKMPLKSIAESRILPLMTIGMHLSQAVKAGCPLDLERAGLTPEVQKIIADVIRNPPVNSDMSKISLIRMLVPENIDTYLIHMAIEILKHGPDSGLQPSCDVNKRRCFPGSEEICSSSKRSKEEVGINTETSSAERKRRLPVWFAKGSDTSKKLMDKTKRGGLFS

target: Bifunctional 3'-5' exonuclease/ATP-dependent helicase WRN (Homo sapiens) (UniProt Q14191); assay: qHTS for Inhibitors of WRN Helicase; conditions: WRN helicase unwinding, fluorescent forked duplex, kinetic; activity change, negative = inhibition: at 114 µM (top of the series) unless noted; further: nearly all actives have a fitted effect of over 55% in size
Method in brief: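 Primary qHTS, 1536-well format. 20 nM WRN + compound, 15 min RT; start with 100 nM forked fluorophore/quencher duplex, 2 mM ATP (final); kinetic read ex 525/em 598 nm.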
On the % scale 0 is the no-effect control and ±100 the full control effect; potency means the concentration at half of the fitted maximal effect.

| SMILES | activity change, negative = inhibition | Potency |
| --- | --- | --- |
| CCN(CC)C(=O)CC(c1cc(OC)c(OC)c(OC)c1)c1c(OC)cc(OC)c2ccc(=O)oc12 (stereo not drawn) | inactive: -5.65% |  |
| CCCNCC(=O)Nc1cccc(S(=O)(=O)NC2=NCCCCC2)c1 |  | inconclusive: 35.5 µM [inhibitor, full curve] |
| O=C(NCCOc1ccccc1)C1CCC(=O)N(Cc2ccc(Cl)cc2)C1 (stereo not drawn) |  | inconclusive: 79.4 µM [inhibitor, single point] |
| COC(=O)CCN1CCN(S(=O)(=O)c2ccccc2Br)CC1 |  | inconclusive: 31.6 µM [inhibitor, partial curve] |
| CN(CC(O)CON=C1c2ccccc2-c2ccccc21)S(=O)(=O)c1ccc(Br)cc1 (stereo not drawn) |  | inconclusive: 28.2 µM [inhibitor, single point] |
| CCOC(=O)C1(CC2CC2)CCN(Cc2cn[nH]c2-c2ccccc2)CC1 | inactive: 0.382% |  |
| COc1ccc(/C=C/C(=O)NCC(=O)N/N=C/c2ccc(OC)cc2)cc1 |  | inconclusive: 31.6 µM [inhibitor, single point] |
| COc1cccc(/C=N/NC(=O)C(C)n2nnc3ccccc32)c1 (stereo not drawn) | inactive: -27% |  |
| O=c1[nH][nH]c(=S)n1C1CCCCC1 |  | active: 56.2 µM |
| CC(=O)c1ccc(S(=O)(=O)Nc2ccc(-c3ccc4nncn4n3)cc2)cc1 |  | inconclusive: 44.7 µM [inhibitor, full curve, poor fit] |
| CC(C)(C)NC(=O)CN(Cc1ccccc1)S(=O)(=O)c1ccccc1 |  | inconclusive: 10 µM [inhibitor, full curve] |
| Nc1ccc2nc(-c3cc(Cl)c(N)c(Cl)c3)[nH]c2c1 |  | inconclusive: 56.2 µM [inhibitor, partial curve] |
| COc1ccc(Br)cc1CN1CCN(S(=O)(=O)Cc2ccccc2)CC1 |  | inconclusive: 25.1 µM [inhibitor, full curve, poor fit] |
| O=C(O)c1cccc(Cn2c(Cl)c(/C=N/NC(=O)c3ccc(O)cc3)sc2=O)c1 |  | inconclusive: 89.1 µM [inhibitor, partial curve] |
| O=C(Cc1cccs1)N(c1ccc(Br)cc1)C1C=CS(=O)(=O)C1 (stereo not drawn) | inactive: -10.2% |  |
| C/C(CC(=O)Nc1ccc(N(C)C)cc1)=N\NC(=O)c1ccccn1 |  | inconclusive: 89.1 µM [inhibitor, single point] |
| COc1cc(NC(=O)C(C)Oc2ccccc2)c(OC)cc1NC(=O)c1ccccc1 (stereo not drawn) |  | inconclusive: 100 µM [inhibitor, single point] |
| O=[N+]([O-])c1cccc(CN2CCN(S(=O)(=O)Cc3ccccc3)CC2)c1 |  | inconclusive: 56.2 µM [inhibitor, partial curve] |
| COc1cc(/C=C2\C(=O)ON=C2c2ccccc2)cc(Br)c1O |  | inconclusive: 44.7 µM [inhibitor, partial curve] |
| CCOC(=O)c1c(C)[nH]c(C(=O)OCC(=O)NCc2ccc(OC)c(OC)c2)c1C |  | inconclusive: 14.1 µM [inhibitor, single point] |
| Cc1cc(=O)oc2cc(OCC(=O)N/N=C/c3ccccc3[N+](=O)[O-])ccc12 |  | inconclusive: 35.5 µM [inhibitor, partial curve] |
| Cc1onc(-c2ccc(Cl)cc2)c1-c1ccnn1S(=O)(=O)c1cccc(C(F)(F)F)c1 | inactive: -14.2% |  |
| Cc1cc(C(=O)N/N=C/c2cc(Br)c(Br)o2)n[nH]1 |  | inconclusive: 6.31 µM [inhibitor, partial curve, poor fit] |

| SMILES | activity change, negative = inhibition | Potency |
| --- | --- | --- |
| C/C(=N/OC(=O)c1ccccc1Br)c1ccc(C)cc1 |  | inconclusive: 10 µM [inhibitor, full curve] |
| CC(=O)Oc1ccc(-n2c(=O)c3ccccc3c3ccccc3c2=O)cc1 |  | inconclusive: 14.1 µM [inhibitor, full curve] |
| CCc1c(C)sc(NC(=O)CC#N)c1C#N |  | inconclusive: 56.2 µM [inhibitor, partial curve] |
| N#C/C(=C\c1ccc(OC(=O)c2ccccn2)cc1)C(N)=O |  | inconclusive: 12.6 µM [inhibitor, single point] |
| Clc1ccc2c(N/N=C/c3ccccc3Br)ccnc2c1 |  | inconclusive: 17.8 µM [inhibitor, single point] |
| COc1ccc(NC(=O)CCS(=O)(=O)c2ccc3c(c2)oc(=O)n3C)cc1OC | inactive: -4.84% |  |
| COc1cc(-c2nc(=S)[nH][nH]2)cc(OC)c1OC |  | inconclusive: 50.1 µM [inhibitor, partial curve] |
| COc1ccc(C(CNC(=O)c2ccc(S(=O)(=O)Nc3cccc(C)c3C)cc2)N2CCOCC2)cc1 (stereo not drawn) | inactive: -0.0259% |  |
| CCOc1cc(/C=C2\C(=O)NN(c3ccccc3)C2=O)cc([N+](=O)[O-])c1O |  | inconclusive: 39.8 µM [inhibitor, partial curve] |
| C[n+]1c(-c2ccccc2)cc2c(=Cc3ccc([N+](=O)[O-])cc3)c3ccccc3n21 |  | inconclusive: 15.8 µM [inhibitor, full curve] |
| COc1cccc(-n2nnnc2S(C)(=O)=O)c1 |  | active: 50.1 µM |
| O=c1cc(-c2c(O)c3ccccc3n(Cc3ccccc3)c2=O)[nH][nH]1 |  | inconclusive: 50.1 µM [inhibitor, partial curve] |
| Nc1nonc1C(=O)NCCN=Cc1cc(Cc2ccccc2)cc(Br)c1O |  | inconclusive: 39.8 µM [inhibitor, partial curve] |
| C/C(=N\NC(=O)c1cccc(Cl)c1)C1C(=O)c2ccccc2C1=O |  | inconclusive: 56.2 µM [inhibitor, partial curve, poor fit] |
| Cc1ccc(C(=O)NCC(=O)OCC(=O)Nc2cc(S(=O)(=O)N3CCOCC3)ccc2Cl)s1 |  | inconclusive: 25.1 µM [inhibitor, full curve] |
| CN(Cc1ccccc1F)c1nc(-c2cccs2)nc2ccccc12 |  | inconclusive: 22.4 µM [inhibitor, single point] |
| Cn1c(SCc2nc3cc(C(=O)O)ccc3c(=O)[nH]2)nnc1C(F)(F)F | inactive: 2.43% |  |
| Cn1c(=O)c2c(ncn2CC(=O)Nc2cccc(S(=O)(=O)Nc3ccccc3F)c2)n(C)c1=O |  | inconclusive: 63.1 µM [inhibitor, partial curve] |
| CC(=O)NC1=C(NC2CCS(=O)(=O)C2)C(=O)c2ccccc2C1=O (stereo not drawn) | inactive: 3.24% |  |
| COc1ccccc1C(=O)COC(=O)COc1cccc2c1OC(C)(C)C2 |  | inconclusive: 79.4 µM [inhibitor, single point] |
| CN(C)CCCNCCCNC(=O)/C(=N\O)c1ccccc1 |  | inconclusive: 28.2 µM [inhibitor, single point] |
| O=S(=O)(NCC1CCCN(Cc2ccccc2O)C1)c1cccc2cccnc12 (stereo not drawn) |  | inconclusive: 89.1 µM [inhibitor, single point] |
| COc1ccccc1OCC(=O)Nc1ccc(S(=O)(=O)Nc2cc(C)on2)cc1 |  | inconclusive: 10 µM [inhibitor, full curve, poor fit] |

Reformatted with bars between the fields: entries from further up.
SMILES | activity change, negative = inhibition | Potency
COc1cc(/C=C2\C(=O)ON=C2c2ccccc2)cc(Br)c1O |  | inconclusive: 44.7 µM [inhibitor, partial curve]
CCOC(=O)c1c(C)[nH]c(C(=O)OCC(=O)NCc2ccc(OC)c(OC)c2)c1C |  | inconclusive: 14.1 µM [inhibitor, single point]
Cc1cc(=O)oc2cc(OCC(=O)N/N=C/c3ccccc3[N+](=O)[O-])ccc12 |  | inconclusive: 35.5 µM [inhibitor, partial curve]

More results follow.

| SMILES | activity change, negative = inhibition | Potency |
| --- | --- | --- |
| COc1ccc(N=C2NC(=O)/C(=C\c3ccco3)S2)cc1 |  | inconclusive: 56.2 µM [inhibitor, partial curve] |
| CCCCC(=O)NC(c1ccc([N+](=O)[O-])cc1)c1c(O)ccc2ccccc12 (stereo not drawn) |  | inconclusive: 11.2 µM [inhibitor, partial curve] |
| O=C1CSCC(=O)N1c1ncc(C(F)(F)F)cc1Cl |  | inconclusive: 11.2 µM [inhibitor, full curve] |
| Nc1cc2nsnc2cc1Br |  | inconclusive: 17.8 µM [inhibitor, full curve] |
| COc1ccc(NC(=O)/C=C/c2ccco2)cn1 | inactive: -17.6% |  |
| Nc1c(O)ccc2c1C(=O)c1ccccc1C2=O | inactive: -32.7% |  |
| Nc1ccc(-c2nnn(Cc3ccccc3F)n2)cc1 |  | inconclusive: 89.1 µM [inhibitor, single point] |
| COc1ccc(CN2CCN(C(=O)c3ccco3)CC2)cc1OC | inactive: -6.03% [at 57.1 µM] |  |
| COCCNC(=S)Nc1cc(S(=O)(=O)N2CCOCC2)ccc1N1CCCCC1 |  | inconclusive: 79.4 µM [inhibitor, partial curve] |
| COc1ccc2nc(C)cc(SCC(=O)N/N=C/c3ccc(O)c(O)c3)c2c1 |  | active: 14.1 µM |
| O=C1SC(SCc2ccccc2Cl)=N/C1=C\c1ccc(C(=O)O)cc1 | inactive: -18.4% [at 11.6 µM] |  |
| Cn1c2ccccc2c(=O)c2c(=O)n(Cc3ccco3)c(COc3ccccc3)nc21 |  | inconclusive: 17.8 µM [inhibitor, single point] |
| CC(=O)NC1=NC(=O)/C(=C/c2cc(C)n(-c3cccc(C(=O)O)c3)c2C)S1 |  | active: 44.7 µM |
| Nc1ccc(O)c2c1C(=O)c1ccccc1C2=O |  | active: 31.6 µM |
| Cc1nc(C)c(C(=O)Nc2nc3c(C)cccc3s2)o1 |  | inconclusive: 50.1 µM [inhibitor, partial curve] |
| Cc1cccc(N2NC(=O)/C(=C/c3ccc(-c4ccc(Cl)c(C(=O)O)c4)o3)C2=O)c1 |  | active: 39.8 µM |
| NC(=O)c1ccc(N=Cc2ccc([N+](=O)[O-])s2)cc1 | inactive: -3.03% |  |
| CCOc1ccc(N2CC(C(=O)N3CCN(c4ccccn4)CC3)CC2=O)cc1 (stereo not drawn) | inactive: -23.3% |  |
| O=C(CCCCCn1c(=S)[nH]c2cc3c(cc2c1=O)OCO3)N1CCN(C(=O)c2ccco2)CC1 |  | inconclusive: 31.6 µM [inhibitor, full curve] |
| Brc1ccc(-c2cnc3n2CCCC3)cc1 |  | inconclusive: 6.31 µM [inhibitor, full curve, poor fit] |
| O=C(Nc1nc(-c2ccco2)cs1)c1ccccc1 |  | inconclusive: 56.2 µM [inhibitor, partial curve] |
| COc1ccc(NC(=O)C(C)N2C(=O)C3CC=C(Cl)CC3C2=O)cc1 (stereo not drawn) |  | inconclusive: 79.4 µM [inhibitor, single point] |
